The source of these data is article PMC11406491, “A Plasmonic Nanoledge Array Sensor for Selective Detection of Cardiovascular Disease Biomarkers in Human Whole Blood”.

The test system of this series is creatine kinase (CK). In words: SPR (transmitted, EOT peak shift). The following applies: up to 125 ng/mL, minimal shift, described as poor binding, human serum (Methods) or PBS (Fig S8), 5' amino modifier C6 (5AmMC6), Aptamer immobilized on gold nanoledge chip (cystamine/glutaraldehyde, PEG and glycine blocked), human serum or whole blood, 20 min incubation, commercial protein, single-stranded DNA.

Construct, isoform or probe ends are uncertain for at least one entry. A negative result means that nothing was seen under these conditions.

In the case of “CGTGCAGTACGCCAACCTTTCTCATGCGCTGCCCCTCTTA [cTnI-specific aptamer]”, the binding result was “no binding”.
